Some entries share one result that the patent states for a list of compounds.
Test system: DSS-Induced inflammatory Bowel Disease Models in Mice
Assay: DSS-induced inflammatory bowel disease model in mice (Biological Example 2, 0.9% DSS)
Format: in vivo, C57BL/6 mice
Details: 30 mg/Kg i.g. Q.D
Method: 66 female C57BL/6 mice were randomly divided into 6 groups: normal control group, model control group, cyclosporine A (25 mg/Kg), 5-ASA (100 mg/Kg), the compound in Example 27 (30 mg/Kg) and the compound in Example 26 (30 mg/Kg). There were 11 mice in each group (see Table 4 below). Besides the normal control group, the remaining groups were induced with 0.9% DSS for 5 days. The day of induction was the first day of the test and then normal drinking water was administered for 4 days. The normal control group was administered with normal drinking water all the time. The model control group, 5-ASA group, the compound in Example 27 group and the compound in Example 26 group were administered with 1% CMC-Na or the corresponding drug every day from the first day of the experiment to the end of the experiment. The cyclosporine A group was administered with cyclosporine A every day from the first day of experiment to the fifth day of the experiment and was administered with the corresponding volume of 1% CMC-Na every day from the sixth day to the end of the experiment due to toxicity. The normal control group was administered with the corresponding volume of 1% CMC-Na every day. The animals were treated and the indexes were tested at the end of the experiment. […]
One-Way Anova test was performed with SPSS 17.0. The colony length was analyzed statistically between groups.

| Structure (SMILES) | alleviation of the colonic reduction compared with model control group |
| --- | --- |
| COCCCN1C(=O)CCC(N2C(=O)c3cccc(N)c3C2=O)C1=O (centres unmarked) [Example 26, 4-amino-2-(1-(3-methoxypropyl)-2,6-dioxopiperidin-3-yl)isoindolin-1,3-dione] | more than 40% |
| COCCN1C(=O)CCC(N2C(=O)c3cccc(N)c3C2=O)C1=O (centres unmarked) [Example 27, 4-amino-2-(1-(2-methoxyethyl)-2,6-dioxopiperidin-3-yl)isoindolin-1,3-dione] | more than 40% |

From patent US11873287B2, “Piperidine-2,6-dione derivatives and ulcerative colitis treating” (TIANJIN HEMAY PHARMACEUTICAL SCI-TECH CO., LTD, priority 2016, dated 2024)
